These are yes or no findings as the source states them, for the method shown. In cells and extracts the contact can be indirect. Some results given as binding are weak or reduced against the parent protein; the word gives no strength. For some of these results: Tags and fused reporters may be left off the sequences shown.
T1: REG3B in acinar cell lines (lines not named for this experiment) (UniProt P35230)
T1 sequence: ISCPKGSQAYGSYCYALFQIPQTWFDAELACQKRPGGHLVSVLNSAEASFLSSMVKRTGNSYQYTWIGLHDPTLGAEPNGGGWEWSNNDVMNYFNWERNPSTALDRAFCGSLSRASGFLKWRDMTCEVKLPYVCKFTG

Amino acid sequences for entries named in this document (tags omitted). Residues count along the entry.
UniProt Q00560, residues 23-917: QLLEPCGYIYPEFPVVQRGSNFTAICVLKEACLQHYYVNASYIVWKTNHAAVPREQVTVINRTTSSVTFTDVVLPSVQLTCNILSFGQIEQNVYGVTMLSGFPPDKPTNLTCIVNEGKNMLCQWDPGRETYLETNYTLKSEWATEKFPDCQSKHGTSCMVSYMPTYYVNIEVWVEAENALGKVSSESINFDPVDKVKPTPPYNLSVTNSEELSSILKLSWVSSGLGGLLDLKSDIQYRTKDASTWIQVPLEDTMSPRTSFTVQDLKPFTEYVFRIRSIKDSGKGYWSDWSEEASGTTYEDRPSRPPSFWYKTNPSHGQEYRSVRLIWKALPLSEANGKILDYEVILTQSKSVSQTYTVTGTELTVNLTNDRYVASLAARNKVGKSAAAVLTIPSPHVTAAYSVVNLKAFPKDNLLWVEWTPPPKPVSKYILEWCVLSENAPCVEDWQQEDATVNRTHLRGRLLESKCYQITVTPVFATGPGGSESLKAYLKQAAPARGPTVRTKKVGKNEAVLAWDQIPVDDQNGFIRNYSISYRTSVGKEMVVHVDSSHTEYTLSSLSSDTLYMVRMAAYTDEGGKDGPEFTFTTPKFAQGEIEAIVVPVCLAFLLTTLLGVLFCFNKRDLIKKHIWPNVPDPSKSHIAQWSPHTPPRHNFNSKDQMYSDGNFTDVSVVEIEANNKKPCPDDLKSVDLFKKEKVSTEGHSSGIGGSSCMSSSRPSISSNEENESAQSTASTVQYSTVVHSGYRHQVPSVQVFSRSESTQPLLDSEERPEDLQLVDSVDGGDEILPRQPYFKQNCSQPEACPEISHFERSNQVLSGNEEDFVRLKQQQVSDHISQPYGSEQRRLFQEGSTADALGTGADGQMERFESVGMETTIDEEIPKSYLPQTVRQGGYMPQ

T2: REG3B (mouse) (mouse (endogenous in mouse primary acinar cells and 266-6)) (UniProt P35230)
T2 sequence: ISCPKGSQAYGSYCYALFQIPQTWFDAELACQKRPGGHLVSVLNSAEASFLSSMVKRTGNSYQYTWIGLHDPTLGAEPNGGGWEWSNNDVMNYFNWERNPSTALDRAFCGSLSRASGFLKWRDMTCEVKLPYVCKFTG

T3: Exostosin-like glycosyltransferase 3 (EXTL3), mouse (mouse (endogenous in mouse primary acinar cells and 266-6)) (UniProt Q9WVL6)
T3 sequence: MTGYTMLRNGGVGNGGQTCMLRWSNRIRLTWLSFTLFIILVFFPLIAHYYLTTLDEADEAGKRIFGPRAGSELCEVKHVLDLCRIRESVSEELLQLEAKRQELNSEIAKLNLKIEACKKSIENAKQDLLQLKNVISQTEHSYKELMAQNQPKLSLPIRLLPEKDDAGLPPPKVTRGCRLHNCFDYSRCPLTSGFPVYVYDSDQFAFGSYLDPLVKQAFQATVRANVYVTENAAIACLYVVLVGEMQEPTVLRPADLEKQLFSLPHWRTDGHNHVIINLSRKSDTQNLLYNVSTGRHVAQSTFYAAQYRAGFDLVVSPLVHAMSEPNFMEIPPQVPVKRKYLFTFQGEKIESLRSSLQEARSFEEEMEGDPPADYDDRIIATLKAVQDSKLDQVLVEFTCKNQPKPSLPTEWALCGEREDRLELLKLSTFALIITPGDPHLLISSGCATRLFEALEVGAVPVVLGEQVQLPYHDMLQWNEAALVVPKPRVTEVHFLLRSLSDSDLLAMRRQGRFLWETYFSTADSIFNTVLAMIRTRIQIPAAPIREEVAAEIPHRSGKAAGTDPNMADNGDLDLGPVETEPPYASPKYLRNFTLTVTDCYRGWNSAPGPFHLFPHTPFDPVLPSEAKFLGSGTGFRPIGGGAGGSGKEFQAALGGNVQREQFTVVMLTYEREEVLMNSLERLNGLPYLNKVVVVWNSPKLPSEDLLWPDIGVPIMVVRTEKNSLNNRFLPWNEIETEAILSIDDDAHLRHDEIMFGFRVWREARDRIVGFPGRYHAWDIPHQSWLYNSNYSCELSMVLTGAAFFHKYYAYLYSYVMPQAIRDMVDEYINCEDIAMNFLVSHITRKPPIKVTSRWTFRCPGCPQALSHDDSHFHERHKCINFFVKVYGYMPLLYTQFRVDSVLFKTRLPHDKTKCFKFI


Legend:
[1] = molecular target: T1, REG3B in acinar cell lines (lines not named for this experiment); assay: co-IP; co-immunoprecipitation of candidate receptors with REG3B in acinar cell lines (Supplementary Fig. 3d); lines and precipitating antibody not told
[2] = molecular target: T2, REG3B (mouse) (mouse (endogenous in mouse primary acinar cells and 266-6)); assay: co-IP; total lysates (2 mg, pre-cleared) incubated overnight at 4 °C with anti-REG3B antibody (20 μg/mL), Protein-G agarose beads; eluates blotted for EXTL3; mouse primary acinar cells and AR42J
[3] = molecular target: T3, Exostosin-like glycosyltransferase 3 (EXTL3), mouse (mouse (endogenous in mouse primary acinar cells and 266-6)); assay: co-IP; total lysates (2 mg, pre-cleared) incubated overnight at 4 °C with anti-EXTL3 antibody (20 μg/mL), Protein-G agarose beads; eluates blotted for REG3B; 266-6 and mouse primary acinar cells

Molecule | binding [1] | other results
GP130 (from UniProt Q00560 23-917) (receptor) | no binding | 
EGFR (from UniProt Q01279 25-1210) (receptor) | no binding | 
Exostosin-like glycosyltransferase 3 (EXTL3), mouse (receptor, UniProt Q9WVL6 1-918) MTGYTMLRNGGVGNGGQTCMLRWSNRIRLTWLSFTLFIILVFFPLIAHYYLTTLDEADEAGKRIFGPRAGSELCEVKHVLDLCRIRESVSEELLQLEAKRQELNSEIAKLNLKIEACKKSIENAKQDLLQLKNVISQTEHSYKELMAQNQPKLSLPIRLLPEKDDAGLPPPKVTRGCRLHNCFDYSRCPLTSGFPVYVYDSDQFAFGSYLDPLVKQAFQATVRANVYVTENAAIACLYVVLVGEMQEPTVLRPADLEKQLFSLPHWRTDGHNHVIINLSRKSDTQNLLYNVSTGRHVAQSTFYAAQYRAGFDLVVSPLVHAMSEPNFMEIPPQVPVKRKYLFTFQGEKIESLRSSLQEARSFEEEMEGDPPADYDDRIIATLKAVQDSKLDQVLVEFTCKNQPKPSLPTEWALCGEREDRLELLKLSTFALIITPGDPHLLISSGCATRLFEALEVGAVPVVLGEQVQLPYHDMLQWNEAALVVPKPRVTEVHFLLRSLSDSDLLAMRRQGRFLWETYFSTADSIFNTVLAMIRTRIQIPAAPIREEVAAEIPHRSGKAAGTDPNMADNGDLDLGPVETEPPYASPKYLRNFTLTVTDCYRGWNSAPGPFHLFPHTPFDPVLPSEAKFLGSGTGFRPIGGGAGGSGKEFQAALGGNVQREQFTVVMLTYEREEVLMNSLERLNGLPYLNKVVVVWNSPKLPSEDLLWPDIGVPIMVVRTEKNSLNNRFLPWNEIETEAILSIDDDAHLRHDEIMFGFRVWREARDRIVGFPGRYHAWDIPHQSWLYNSNYSCELSMVLTGAAFFHKYYAYLYSYVMPQAIRDMVDEYINCEDIAMNFLVSHITRKPPIKVTSRWTFRCPGCPQALSHDDSHFHERHKCINFFVKVYGYMPLLYTQFRVDSVLFKTRLPHDKTKCFKFI |  | binding [2]: binds
REG3B (mouse) (protein, UniProt P35230 38-175) ISCPKGSQAYGSYCYALFQIPQTWFDAELACQKRPGGHLVSVLNSAEASFLSSMVKRTGNSYQYTWIGLHDPTLGAEPNGGGWEWSNNDVMNYFNWERNPSTALDRAFCGSLSRASGFLKWRDMTCEVKLPYVCKFTG |  | binding [3]: binds

— paper PMC8184755
